Results are given in words; binding and its absence hold for the method and conditions named. In cells and extracts the contact can be indirect. Some results given as binding are weak or reduced against the parent protein; the word gives no strength.
Experiments:
[1] = molecular target: IGF1R-NTEV-tcs-GV-2HA (insulin growth factor 1 receptor fused to the NTEV-tcs-GV tag) (UniProt P08069); assay: split reporter; split TEV recruitment assay in dose-response format in living PC12 cells; increasing concentrations of agonist (EGF, EGFld, IGF1, HGF) at semi-logarithmic scale, or increasing antagonist (lapatinib, WZ4002 and others) followed 1 h later by a constant agonist; firefly luciferase read-out, Renilla control; ERBB2-V5 co-transfected for ERBB3
[2] = molecular target: IGF1R-NTEV-tcs-GV-2HA (insulin growth factor 1 receptor fused to the NTEV-tcs-GV tag) (UniProt P08069); assay: split reporter; split TEV recruitment end-point assay in living PC12 cells, 96-well; receptor-NTEV-tcs-GV and adapter-CTEV plasmids with a 10xUAS-minCMVp firefly luciferase reporter; cells starved 16-20 h, stimulated 16 h with EGF (30 ng/ml), EGFld (10 ng/ml), IGF1 (100 ng/ml) or HGF (100 ng/ml) or left non-stimulated; ERBB2-V5 co-transfected for ERBB3

Protein sequences, listed by entry. Tags and fused reporters are not part of them. Residues count along the entry.
UniProt P08069, residues 31-1367: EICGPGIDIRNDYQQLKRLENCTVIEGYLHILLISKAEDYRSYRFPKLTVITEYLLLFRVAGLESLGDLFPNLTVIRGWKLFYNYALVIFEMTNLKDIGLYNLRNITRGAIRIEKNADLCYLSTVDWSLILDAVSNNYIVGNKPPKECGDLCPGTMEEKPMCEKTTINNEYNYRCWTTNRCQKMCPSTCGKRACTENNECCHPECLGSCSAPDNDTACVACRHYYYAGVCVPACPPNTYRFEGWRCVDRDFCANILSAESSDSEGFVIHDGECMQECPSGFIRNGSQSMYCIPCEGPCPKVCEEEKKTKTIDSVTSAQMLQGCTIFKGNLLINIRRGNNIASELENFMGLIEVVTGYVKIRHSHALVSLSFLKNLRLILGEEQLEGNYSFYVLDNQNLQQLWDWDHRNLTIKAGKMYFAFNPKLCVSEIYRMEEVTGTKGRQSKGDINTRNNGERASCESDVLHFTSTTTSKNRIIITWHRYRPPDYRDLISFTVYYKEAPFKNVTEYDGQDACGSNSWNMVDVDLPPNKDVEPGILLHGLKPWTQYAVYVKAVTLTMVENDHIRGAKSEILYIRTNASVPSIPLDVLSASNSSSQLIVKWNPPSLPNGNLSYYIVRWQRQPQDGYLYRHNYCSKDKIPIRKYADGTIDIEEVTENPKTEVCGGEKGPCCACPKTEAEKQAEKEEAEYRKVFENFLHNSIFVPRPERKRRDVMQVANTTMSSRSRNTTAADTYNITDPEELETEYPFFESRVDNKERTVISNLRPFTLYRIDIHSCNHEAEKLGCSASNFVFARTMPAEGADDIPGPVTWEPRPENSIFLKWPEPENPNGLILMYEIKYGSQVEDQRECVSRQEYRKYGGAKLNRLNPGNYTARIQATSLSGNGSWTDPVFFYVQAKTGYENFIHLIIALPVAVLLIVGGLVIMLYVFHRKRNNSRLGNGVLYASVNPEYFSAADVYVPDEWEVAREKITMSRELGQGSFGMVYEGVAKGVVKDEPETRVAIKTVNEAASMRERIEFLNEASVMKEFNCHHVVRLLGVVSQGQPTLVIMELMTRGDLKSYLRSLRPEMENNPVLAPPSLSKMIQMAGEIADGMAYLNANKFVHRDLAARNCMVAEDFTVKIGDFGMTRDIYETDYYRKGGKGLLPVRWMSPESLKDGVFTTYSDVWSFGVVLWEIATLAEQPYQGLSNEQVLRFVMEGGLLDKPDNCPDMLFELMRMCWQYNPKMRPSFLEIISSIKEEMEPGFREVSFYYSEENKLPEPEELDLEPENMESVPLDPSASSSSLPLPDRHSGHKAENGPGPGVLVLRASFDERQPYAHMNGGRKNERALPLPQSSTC

binding [1]: binds
binding [2]: binds
Substance: SH2(GRB2)-CTEV-2HA (artificial adapter of three concatenated SH2 domains of GRB2, fused to CTEV) (from UniProt P62993 60-152; P62993 60-152; P62993 60-152) (designed binder)

— paper PMC6675780, “Monitoring activities of receptor tyrosine kinases using a universal adapter in genetically encoded split TEV assays” (Cellular and Molecular Life Sciences: CMLS, 2019)
